# Measured values: PubChem BioAssay AID540276 (National Center for Advancing Translational Sciences (NCATS), 2011)
# Screen size: about 300,000 compounds; about 5,400 (1.8%) were called active. Inconclusive means that the source gave no clear call. Such entries were picked first, then a sample of the others. Calls come from the whole dose curve; tested in HEK293 cells. Potencies of inconclusive entries are doubtful fits and often do not repeat.
# Test: qHTS for inhibitors of binding or entry into cells for Marburg Virus
# Conditions: Marburg virus pseudotyped entry inhibition, cell reporter; series mostly up to 37.8 µM
# Potency is the fitted concentration of half-maximal effect.
row,SMILES,Potency
1,COCn1c(COc2ccccc2)nc2ccccc21,"inconclusive: 3.26 µM [activator, partial curve, poor fit]"
2,O=C1NN(c2ccccc2)C(=O)/C1=C/c1ccc(Sc2cccc3ccccc23)o1,"inconclusive: 0.794 µM [inhibitor, single point]"
3,Cn1cc(/C=C/c2cc[n+](C)cc2)c2cc(F)ccc21,"inconclusive: 25.1 µM [inhibitor, partial curve, poor fit]"
4,Cc1ccccc1NC(=O)COc1coc(CN2CCN(c3ccccc3)CC2)cc1=O,inactive
5,O=C1Nc2cccc(Br)c2[C@@]12O[C@H](COc1ccccc1)CC1=CCCC12 (some centres undefined),"inconclusive: 5.96 µM [inhibitor, single point]"
6,CC(C)CCN1CCN(Cc2ccon2)CC1CCO (centres undefined),inactive
7,O=c1c(-c2ccco2)[n+]([O-])c2ccccc2n1OCc1ccccn1,inactive
8,CCn1nc(-c2ccccc2)c(-c2ccccc2)c(C(=O)Nc2ccc(NC(C)=O)cc2)c1=O,"inconclusive: 0.708 µM [inhibitor, full curve, poor fit]"
9,CCn1c(NCc2ccc3c(c2)OCO3)nc2ccccc21,"inconclusive: 15.8 µM [inhibitor, single point]"
10,O=C(O)c1nn(CCOc2ccc(Cl)cc2Cl)c(=O)c2ccccc12,"inconclusive: 35.5 µM [inhibitor, partial curve, poor fit]"
11,COc1ccc(NC(=O)COc2ccc3c(C)cc(=O)oc3c2)cc1S(=O)(=O)N1CCCCC1,inactive
12,Cc1cc(C)cc(Oc2nc3ccccn3c(=O)c2/C=C(\C#N)c2nc3ccccc3s2)c1,inactive
13,Cc1cc2occ(CC(=O)Nc3nnc(C4CC4)s3)c2cc1C,inactive
14,O=C1N/C(=C/c2ccc(N3CCOCC3)o2)C(=O)N1c1ccccc1,"inconclusive: 23.1 µM [inhibitor, partial curve, poor fit]"
15,O=C(COc1ccc(Br)cc1)N1CCN(c2ccc([N+](=O)[O-])c(N3CCCCC3)c2)CC1,inactive
16,CCc1cccc(CC)c1NC(=O)CN1C2CCCC1CC(NC(=O)Nc1cccc(OC)c1)C2 (centres undefined),"inconclusive: 6.31 µM [inhibitor, partial curve, poor fit]"
17,CN(Cc1ccccc1)S(=O)(=O)c1ccc2c(c1)n(C)c(=O)n2C,"inconclusive: 7.08 µM [inhibitor, partial curve, poor fit]"
18,O=C(NC1CCN(Cc2ccccc2)CC1)c1ccc(Cn2c(=O)c3ccccc3n(Cc3ccc(F)cc3)c2=O)cc1,"inconclusive: 3.55 µM [inhibitor, partial curve]"
19,CCCOC(=O)c1ccc(NC(=O)C2C3C=CC(O3)C2C(=O)O)cc1 (centres undefined),inactive
20,COc1cccc([C@H]2NC(=O)CC=C[C@H](C)[C@@H](c3cccc(OC)c3)NC(=O)CC=C[C@H]2C)c1,"inconclusive: 0.0211 µM [inhibitor, full curve, poor fit]"
21,O=C(C/C=N\OCc1ccc(Cl)cc1Cl)Nc1ccccc1,inactive
22,CCOC(=O)C1(CCOc2ccccc2)CCN(Cc2ccc(OC)c(COC)c2)CC1,"inconclusive: 10 µM [inhibitor, partial curve, poor fit]"

row,SMILES,Potency
1,Cc1nc2c3cc(F)ccc3n(CCN3CCCCC3)c2s1,active: 7.08 µM
2,O=c1[nH]nc(Cc2ccc([N+](=O)[O-])cc2)c2ccccc12,inactive
3,Cc1ccc(NC(=O)c2nc(S(C)(=O)=O)ncc2N(Cc2ccco2)Cc2cccs2)cc1C,"inconclusive: 35.5 µM [inhibitor, single point]"
4,O=C1CC(=C2c3ccccc3-c3ccccc32)C(=O)N1CCCCN1CCN(c2ccccc2)CC1,"inconclusive: 29.1 µM [inhibitor, single point]"
5,Cc1cc(=O)[nH]c(N2CCOCC2)n1,inactive
6,CCCn1c(NC(=O)c2ccco2)nc2ccccc21,inactive
7,CC(C)(C)NC(=O)NC(=O)CSc1nnc(COc2ccccc2Cl)o1,"inconclusive: 8.91 µM [activator, partial curve, poor fit]"
8,CCOC(=O)c1c(C)[nH]c(N=Nc2ccc(C)cc2)c1C,"inconclusive: 0.82 µM [activator, full curve, poor fit]"
9,O=C(Nc1ccc(OC(=O)N2CCCCC2)cc1)N1CCOCC1,"inconclusive: 12.6 µM [inhibitor, partial curve, poor fit]"
10,COc1ccc(N2CCN(C(=O)COCc3cc(-c4ccc5c(c4)OCO5)on3)CC2)cc1,inactive
11,O=[N+]([O-])c1ccc(NN=Cc2cccc3ccccc23)nc1,"inconclusive: 25.1 µM [inhibitor, single point]"
12,Cc1ccc(-n2nnnc2C(Cl)c2nnnn2-c2ccc(C)cc2)cc1,inactive
13,CC1(C)CC(=O)/C(=C(\O)Cc2ccccc2)C(=NCCCCCC(=O)O)C1,"inconclusive: 0.794 µM [inhibitor, single point]"
14,COc1ccccc1NC(=O)c1cc2c(C)nn(-c3ccccc3)c2s1,"inconclusive: 22.4 µM [inhibitor, single point]"
15,CC/C(=N/NC(=O)c1ccccc1O)c1c(C)[nH]n(-c2ccccc2)c1=O,"inconclusive: 25.1 µM [inhibitor, single point]"
16,Cc1nn2c(COc3ccc(NC(=O)c4ccccc4)cc3)nnc2c2ccccc12,inactive
17,COc1ccc(NC(=O)NCCN2C(=O)C3C4C=CC(C4)C3C2=O)cc1 (centres undefined),"inconclusive: 2.91 µM [activator, partial curve, poor fit]"
18,Cc1cccc(NC(=O)CNC(=O)c2cccs2)n1,"inconclusive: 0.562 µM [activator, full curve, poor fit]"
19,O=[N+]([O-])c1cncn1CCN1CCOCC1,"inconclusive: 35.5 µM [activator, single point]"
20,CC(=O)COc1ccc(-c2csnn2)cc1,"inconclusive: 14.1 µM [activator, partial curve, poor fit]"
21,O=C1COc2ccc(C(=O)C[n+]3cccc(O)c3)cc2N1,inactive
22,COCCn1nnnc1C(c1ccccc1OC)N1CCN(C(=O)c2ccco2)CC1 (centres undefined),inactive

# Some of these compounds in order of molar mass, ascending:
row,SMILES,Potency
13,CC1(C)CC(=O)/C(=C(\O)Cc2ccccc2)C(=NCCCCCC(=O)O)C1,"inconclusive: 0.794 µM [inhibitor, single point]"
7,CC(C)(C)NC(=O)NC(=O)CSc1nnc(COc2ccccc2Cl)o1,"inconclusive: 8.91 µM [activator, partial curve, poor fit]"
10,COc1ccc(N2CCN(C(=O)COCc3cc(-c4ccc5c(c4)OCO5)on3)CC2)cc1,inactive
